Measured values from publication PMC10817852, “Vascular injury activates the ELK1/SND1/SRF pathway to promote vascular smooth muscle cell proliferative phenotype and neointimal hyperplasia”.
Construct, isoform or probe ends are uncertain for at least one entry. At least one verdict rests on a figure or table, not on a statement of the authors.

What follows are sequences tested on SRF (1-266) in complex with SND1 + SND1 (1-660) (assay: EMSA). Conditions: SRF and SND1 together; Beyotime GS009 chemiluminescent EMSA kit binding buffer (composition, salt and pH not given), 20 fmol biotin probe, 0.1 ug protein, 10 min at room temperature; recombinant protein; label: biotin.

Sequence | binding result
CCATATTAGGCCATATTAGGCCATATTAGGCCATATTAGGCCATATTAGG (double strand) [Fos CArG probe] | binds
CCTATATAGACCTATATAGACCTATATAGACCTATATAGACCTATATAGA (double strand) [Cdk2 CArG probe] | binds
CCTATTTAGTCCTATTTAGTCCTATTTAGTCCTATTTAGTCCTATTTAGT (double strand) [Iqgap1 CArG probe] | binds
CCTTAAATGGCCTTAAATGGCCTTAAATGGCCTTAAATGGCCTTAAATGG (double strand) [Rock2 CArG probe] | binds
